# Source: patent publication US12552747B2, “Amino acid derivative containing non-steroidal anti-inflammatory drug structure and preparation method and application thereof” (priority 2020, dated 2026)
# Experiments:
# [1] = Therapeutic index (MHC / mean IC50); conditions: for TI: ratio of MHC to mean IC50; for TI (fold conversion): relative to PL-AC-15
# SK-hep1 liver tumors = assay: Transplanted tumor in nude mice, intraperitoneal, SK-hep1; type: in vivo; conditions: SK-hep1 tumor-bearing BALB/c mice, 5 mg/kg group
# Method: BALB/c nude mice were used to inoculate Bel-7402, HepG-2 and SK-hep1 liver tumors according to the transplanted tumor research method under aseptic operation, and the cell density was not less than 5×10^6/ml, 0.2 ml was inoculated subcutaneously in the axilla of the right hind limb of each mouse. After the cells were inoculated, the cells were administered intraperitoneally (concentration: 5 mg/kg), once every 3 days, for a total of 8 administrations. After the 2nd day of drug withdrawal, all tumor-bearing mice were sacrificed, and their body weight, tumor weight and tumor inhibition were weighed.
SMILES,TI [1],TI (fold conversion) [1],Body Weight Before administration (SK-hep1 liver tumors) [g]
COc1ccc2cc(C(C)C(=O)NC(Cc3ccc(-c4ccccc4)cc3)C(=O)NC3CC(C)(C)NC(C)(C)C3)ccc2c1 (stereo not shown) [PL-AC-202],211563.8,,
C/C(=C1/c2ccc(F)cc2C(CC(=O)NC(Cc2ccc(-c3ccccc3)cc2)C(=O)NC2CC(C)(C)NC(C)(C)C2)C1C)c1ccc([S+](C)[O-])cc1 (stereo not shown) [PL-AC-204],145732.3,3,
COc1ccc2c(c1)c(CC(=O)NC(Cc1ccc(-c3ccccc3)cc1)C(=O)NC1CC(C)(C)NC(C)(C)C1)c(C)n2C(=O)c1ccc(Cl)cc1 (stereo not shown) [PL-AC-205],165149.4,3,19.0 ± 1.7
CC(=O)Oc1ccccc1C(=O)NC(Cc1ccc(-c2ccccc2)cc1)C(=O)NC1CC(C)(C)NC(C)(C)C1 (stereo not shown) [PL-AC-201],206758.2,4,19.1 ± 1.4
"CC1(C)CC(NC(=O)C(Cc2ccc(-c3ccccc3)cc2)NC(=O)c2cc3ccccc3n2Cc2ccccc2)CC(C)(C)N1 (stereo not shown) [PL-AC-15, reference compound]",50983.88,1,18.9 ± 0.7
CC1(C)CC(NC(=O)C(Cc2ccc(-c3ccccc3)cc2)NC(=O)Cc2ccccc2Nc2c(Cl)cccc2Cl)CC(C)(C)N1 (stereo not shown) [PL-AC-203],110043.4,,
